Source: PubChem BioAssay AID2685 (National Center for Advancing Translational Sciences (NCATS), 2010)
Some of the results follow. Shown are side measurements of this screen, not its main read-out; they come without a call. The list favours compounds with an active or inconclusive main result. The note in brackets gives the kind of curve behind each potency; many fits are weak.

Test: qHTS Assay for Lipid Storage Modulators in Drosophila S3 Cells;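 for cell number change: cells counted by Cell Tracker Red CMTPX staining in the red channel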
Conditions: BODIPY lipid droplet fluorescence, 18-24 h; for cell number change: measured here: cell count max response, cells fed with added oleic acid
How it was run: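 Laser-scanning cytometry quantifies lipid droplet accumulation (500–530 nm total intensity; droplet/cell object ratio) in oleic acid-fed (400 uM added) Drosophila S3 cells treated with a concentration series. 20 uM Triacsin C defined 100% inhibition.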

[1] = measured here: lipid fluorescence (Fed channel) AC50, cells fed with added oleic acid
[2] = measured here: cell number channel AC50, cells fed with added oleic acid

Row | Structure (SMILES) | cell number change [%] | AC50 [1] | AC50 [2]
1 | COc1ccc(-c2cc(C)no2)cc1S(=O)(=O)N1CCCCC1 | -19.3 | 20.6 µM [falling, partial curve] | –
2 | O=c1c2ccccc2nc(CSc2nnnn2-c2ccccc2)n1-c1ccccc1 | 26.8 | – | –
3 | COC(=O)c1ccc(C(=O)N2CCCC(Nc3ccc(C(C)C)cc3)C2)nc1 (stereo not drawn) | -16.4 | 23.1 µM [falling, single point] | –
4 | O=C(CN1CCOCC1)N(c1ccccc1)c1ccc2ccccc2c1 | 70.2 | 0.058 µM [falling, partial curve, poor fit] | 13 µM [rising, partial curve, poor fit]
5 | O=C(NCCN1CCOCC1)c1ccc(Cl)c(Cl)c1 | 17.9 | 0.651 µM [falling, full curve] | –
6 | CC1NC(=S)N(Cc2ccccc2)C1=O (stereo not drawn) | 15.8 | 29.1 µM [falling, single point] | –
7 | Cc1cc(C)c2c(CN3CCCCC3C)cc(=O)oc2c1 (stereo not drawn) | 45.4 | 18.4 µM [rising, partial curve] | 23.1 µM [rising, single point]
8 | O=C1OCCC1Sc1nnc(-c2ccccc2Br)n1Cc1ccccc1 (stereo not drawn) | -18.6 | 6.51 µM [rising, single point] | –
9 | CCC1Oc2ccc(C)cc2N(CC(=O)NCCCN2CCOCC2)C1=O (stereo not drawn) | 9.4 | – | –
10 | COc1cc(/C=C(\C#N)C(=O)Nc2ccc(C(=O)O)cc2)ccc1OC(=O)c1cccc(F)c1 | -21.7 | 6.51 µM [rising, single point] | –
11 | COc1ccccc1C(C)NC(=O)c1ccc(C)o1 (stereo not drawn) | – | – | 0.326 µM [rising, partial curve]
12 | CCOC(=O)c1c2ccc(OCC(=O)N/N=C/c3ccccc3C(F)(F)F)cc2n2ccccc12 | 22.9 | 1.46 µM [rising, full curve, poor fit] | –
13 | CCC(=O)Nc1c(S(=O)(=O)c2ccccc2)c2nc3ccccc3nc2n1Cc1ccccc1 | 13.2 | 29.1 µM [rising, single point] | –
14 | O=C(CNC(=O)c1ccc2ccccc2c1)NCc1ccc(F)cc1 | 182 | – | 18.4 µM [rising, partial curve]
15 | CC(C)c1ccc(-c2cc(C(=O)N3N=C(C(F)F)CC3(O)C(F)F)c3ccccc3n2)cc1 (stereo not drawn) | -84.7 | – | –
16 | O=C(C1CCC1)N1CCN(S(=O)(=O)c2ccccc2)CC1 | 6.02 | – | –
17 | O=C(C(=O)N1CCN(c2ccccc2Cl)CC1)c1c[nH]c2ccccc12 | 5.7 | – | –
18 | COc1cc(/C=C(\C#N)C(=O)NCC2CCCO2)ccc1OCC(=O)O (stereo not drawn) | -11.3 | 18.4 µM [falling, single point] | –
19 | COc1ccc(C(=O)COc2ccc3ccc(=O)oc3c2)cc1 | – | 0.164 µM [rising, full curve, poor fit] | –
20 | Cc1c(Cc2ccccc2)c(=O)oc2cc(OCC(=O)N3CCC(C(=O)O)CC3)ccc12 | 2.91 | – | –
21 | Cc1csc(N(C)C(=O)CSc2nnc(COc3ccccc3C)o2)n1 | 150 | – | –

Row | Structure (SMILES) | cell number change [%] | AC50 [1] | AC50 [2]
22 | COc1ccc(NC(=O)c2cc(-c3ccco3)nc3ccccc23)cn1 | -1.29 | 6.51 µM [falling, single point] | –
23 | COCCNC(=O)CN1CCN(Cc2cccc(Cl)c2)C1=O | -15.3 | 29.1 µM [falling, partial curve] | –
24 | O=C(COC(=O)CCC(=O)c1cccs1)NC1CC1 | -6.42 | – | –
25 | O=C(c1ccc(=O)oc1)N1CCN(C(c2ccccc2)c2ccccc2)CC1 | 0.204 | 0.00461 µM [falling, full curve] | –
26 | CS(=O)(=O)c1ccccc1-c1nnc(NC(=O)c2cccc(N3C(=O)CCC3=O)c2)o1 | -34.1 | – | 0.731 µM [falling, full curve]
27 | Cc1ccc(/C=C/C(=O)N2CCCC(C)C2)cc1 (stereo not drawn) | -6.03 | 18.4 µM [rising, partial curve] | –
28 | CC1CCCN(C(=O)CN(C)S(=O)(=O)c2cccc3nsnc23)C1 (stereo not drawn) | – | – | 6.51 µM [rising, single point]
29 | COc1ccc(OC(=O)c2cnn(-c3ccccc3)c2C)cc1 | 41.4 | – | 29.1 µM [rising, single point]
30 | O=S1(=O)CCC(NC2CCCC2)C1 (stereo not drawn) | 47.7 | 6.51 µM [rising, single point] | 8.2 µM [rising, partial curve, poor fit]
31 | Cc1ccc(NC(=O)COC(=O)C(NS(=O)(=O)c2ccc(Cl)cc2)C(C)O)c(Br)c1 (stereo not drawn) | 17.3 | 29.1 µM [rising, partial curve, poor fit] | –
32 | O=c1[nH]c2ccccc2n1CCCSc1cnc2ccccc2n1 | – | 6.51 µM [rising, partial curve] | –
33 | CC(=O)N1Cc2ccccc2C(C)CC12CCCCC2 (stereo not drawn) | -8.03 | 20.6 µM [falling, single point] | –
34 | CS(=O)(=O)c1ccc(C(=O)N(CCc2ccccc2)Cc2ccccc2)cc1 | 3.81 | 32.6 µM [rising, single point] | –
35 | CC(=O)Nc1ccc(NC(=O)C2CC(=O)N(C(C)C)C2)cc1 (stereo not drawn) | 32.1 | 29.1 µM [rising, single point] | 32.6 µM [rising, single point]
36 | C/C(=N\NC(=S)NCc1ccccc1)c1ccc(C)o1 | -12.3 | – | –
37 | CCN1C(=O)c2cccc3c(N)ccc1c23 | – | – | 6.51 µM [rising, single point]
38 | c1ccc2c(Nc3nc(-c4ccncc4)nc4ccccc34)cccc2c1 | 2.13 | – | 0.0461 µM [rising, single point]
39 | O=C1CC(c2ccccc2)CC(O)=C1C=NCCN1CCNCC1 (stereo not drawn) | -20.9 | 0.0461 µM [falling, full curve, poor fit] | –
40 | Cc1cccc(C(=O)NC2CCN(C(=O)Nc3ccc(F)cc3)CC2)c1 | 1.9 | – | –
41 | OCc1nc2ccccc2n1Cc1c(F)cccc1Cl | -9.48 | 6.51 µM [falling, single point] | –
42 | CCc1c(C)nc(SCC(=O)c2cccs2)c(C#N)c1C | -0.806 | – | 6.51 µM [rising, single point]

4 of the compounds above, as labelled records.
Cc1cc(C)c2c(CN3CCCCC3C)cc(=O)oc2c1 (stereo not drawn)
  cell number change [%]: 45.4; AC50 [1]: 18.4 µM [rising, partial curve]; AC50 [2]: 23.1 µM [rising, single point]
O=C1OCCC1Sc1nnc(-c2ccccc2Br)n1Cc1ccccc1 (stereo not drawn)
  cell number change [%]: -18.6; AC50 [1]: 6.51 µM [rising, single point]
CCC1Oc2ccc(C)cc2N(CC(=O)NCCCN2CCOCC2)C1=O (stereo not drawn)
  cell number change [%]: 9.4
COc1cc(/C=C(\C#N)C(=O)Nc2ccc(C(=O)O)cc2)ccc1OC(=O)c1cccc(F)c1
  cell number change [%]: -21.7; AC50 [1]: 6.51 µM [rising, single point]

Continued.

Row | Structure (SMILES) | cell number change [%] | AC50 [1] | AC50 [2]
43 | Cc1cc(C)c(C)c(S(=O)(=O)Nc2ccc(C(=O)N3CCCC3)cc2)c1C | -1.49 | 6.51 µM [rising, single point] | 0.13 µM [rising, full curve, poor fit]
44 | Cc1cc2c(cc1S(=O)(=O)Nc1cccc(F)c1)n(C)c(=O)c(=O)n2C | -3.17 | – | –
45 | O=C(CCn1c(=S)[nH]c2ccccc2c1=O)NCCCN1CCOCC1 | -16.8 | – | –
46 | O=C(Nc1nc(-c2ccc(Cl)cc2)cs1)NC1CCCCC1 | -16.2 | 29.1 µM [falling, single point] | –
47 | CCCC(=O)Nc1ccc(NC(=O)c2cccs2)cn1 | 173 | 0.58 µM [rising, single point] | 18.4 µM [rising, partial curve]
48 | CC(=O)NCCn1c(SCC(=O)c2ccccc2)nc2ccccc2c1=O | 15.6 | 1.64 µM [rising, full curve] | –
49 | CNC(=O)c1cc2ncc(C(F)(F)F)cc2s1 | -36.9 | – | 4.11 µM [falling, partial curve, poor fit]
50 | O=C(c1cc([N+](=O)[O-])ccc1N1CCCC1)N1CCCCC1 | 0.319 | 0.082 µM [falling, partial curve, poor fit] | –
51 | CC(=O)c1c(C)[nH]c(C(=O)CN2C(=O)NC(C)(c3ccc4c(c3)OCCO4)C2=O)c1C (stereo not drawn) | 20 | 11.6 µM [rising, partial curve, poor fit] | –
52 | O=C1COc2ccc(C(=O)COC(=O)c3ccccn3)cc2N1 | -5.41 | 29.1 µM [falling, single point] | –
53 | O=S(=O)(Nc1ccc(N=Nc2ccccc2)cc1)c1ccccc1 | -48 | 29.1 µM [falling, single point] | 18.4 µM [falling, partial curve]
54 | COCCn1c(SCC(=O)NCc2ccccc2)nc2ccccc21 | -6.67 | 0.103 µM [rising, full curve, poor fit] | –
55 | Cc1ccc2cc(C(c3nnnn3CC3CCCO3)N3CCc4ccccc4C3)c(=O)[nH]c2c1 (stereo not drawn) | – | – | 0.58 µM [rising, full curve, poor fit]
56 | FC(F)(F)c1cnc(NNC(=S)Nc2ccc(Cl)cc2)c(Cl)c1 | -65.5 | 4.61 µM [falling, full curve] | 20.6 µM [falling, partial curve, poor fit]
57 | COc1ccc(C(OCC(O)CNCCc2ccccc2)c2ccc(OC)cc2)cc1 (stereo not drawn) | -34.2 | 25.9 µM [falling, single point] | 29.1 µM [falling, single point]
58 | CC/C(=N\NC(=O)CCC(=O)NCc1ccccc1)c1ccc(O)cc1 | -0.12 | 0.103 µM [falling, full curve, poor fit] | –
59 | O=C(CCN1CCOCC1)N1CCCC(Nc2cccc(F)c2)C1 (stereo not drawn) | -11.6 | 0.82 µM [falling, full curve, poor fit] | –
60 | Cc1cc(C)c(N)cc1C | 18.2 | 11.6 µM [rising, partial curve, poor fit] | –
61 | CCC(C)C(=O)Nc1ccc(OC)cc1[N+](=O)[O-] (stereo not drawn) | 2.29 | 0.164 µM [falling, full curve, poor fit] | –
62 | Nc1c(C(=O)CSc2nnc(-c3ccccc3F)o2)c(=O)[nH]c(=O)n1C1CC1 | 38.6 | 10.3 µM [rising, partial curve] | 9.2 µM [rising, partial curve]
63 | O=C(C[n+]1cn(C(F)F)c2ccccc21)c1ccc(OC(F)F)cc1 | 84.9 | – | 11.6 µM [rising, partial curve]
